Laboratory results from paper PMC11957698.
Where a chain is given by its changes, count along the chain named. In names and notes the source's numbering stands. Results are given in words; binding and its absence hold for the method and conditions named. Binding seen in cells or lysates may run through a third protein. Some binding calls cover weakened binding; strength is not graded here. One block for each binder: values may come before it.

The chains behind the UniProt entries cited, without tags or fusion partners.
UniProt P31001: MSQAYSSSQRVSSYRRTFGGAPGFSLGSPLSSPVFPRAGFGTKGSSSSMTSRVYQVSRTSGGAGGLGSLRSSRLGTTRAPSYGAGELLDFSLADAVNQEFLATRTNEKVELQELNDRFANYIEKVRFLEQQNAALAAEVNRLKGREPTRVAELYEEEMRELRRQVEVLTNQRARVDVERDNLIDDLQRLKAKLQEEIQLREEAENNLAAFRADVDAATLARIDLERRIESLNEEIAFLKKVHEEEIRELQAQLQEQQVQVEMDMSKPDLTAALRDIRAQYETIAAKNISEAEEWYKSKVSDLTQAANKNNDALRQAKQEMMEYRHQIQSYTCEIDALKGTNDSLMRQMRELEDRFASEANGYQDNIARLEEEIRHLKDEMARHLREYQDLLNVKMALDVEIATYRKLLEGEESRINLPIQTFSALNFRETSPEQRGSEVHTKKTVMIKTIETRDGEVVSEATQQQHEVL

Biological target: desmin (mouse (endogenous in myocardium)) (UniProt P31001)
Assay: co-IP; IP with anti-desmin antibody on Protein A/G Sepharose from myocardial extracts of unstressed young adult WT, S59A and S59D mice (RIPA homogenate, 600g pellet dissolved in PBS with 1% SDS and 5 mM EDTA, sonicated, diluted 10-fold); blot for CRYAB

binding: binds
B1: αB-crystallin (CRYAB), WT (protein, UniProt P23927 1-175)
chain: MDIAIHHPWIRRPFFPFHSPSRLFDQFFGEHLLESDLFSTATSLSPFYLRPPSFLRAPSWIDTGLSEMRLEKDRFSVNLDVKHFSPEELKVKVLGDVIEVHGKHEERQDEHGFISREFHRKYRIPADVDPLTITSSLSSDGVLTVNGPRKQVSGPERTIPITREEKPAVAAAPKK

binding: binds
B2: CRYAB S59A (phosphorylation-deficient knock-in) (protein, UniProt P23927 1-175)
chain: B1 chain with S59A

binding: binds
B3: CRYAB S59D (phosphomimetic knock-in) (protein, UniProt P23927 1-175)
chain: B1 chain with S59D
